# Reference: EP2028187A1 (BOARD OF REGENTS, THE UNIVERSITY OF TEXAS SYSTEM, dated 2009)
# Protein sequences, listed by entry. Tags and fused reporters are not part of them. Lines headed by an entry give the natural chain unless they say otherwise; changes in a name come on top. Residues count along the entry.
# UniProt P18084: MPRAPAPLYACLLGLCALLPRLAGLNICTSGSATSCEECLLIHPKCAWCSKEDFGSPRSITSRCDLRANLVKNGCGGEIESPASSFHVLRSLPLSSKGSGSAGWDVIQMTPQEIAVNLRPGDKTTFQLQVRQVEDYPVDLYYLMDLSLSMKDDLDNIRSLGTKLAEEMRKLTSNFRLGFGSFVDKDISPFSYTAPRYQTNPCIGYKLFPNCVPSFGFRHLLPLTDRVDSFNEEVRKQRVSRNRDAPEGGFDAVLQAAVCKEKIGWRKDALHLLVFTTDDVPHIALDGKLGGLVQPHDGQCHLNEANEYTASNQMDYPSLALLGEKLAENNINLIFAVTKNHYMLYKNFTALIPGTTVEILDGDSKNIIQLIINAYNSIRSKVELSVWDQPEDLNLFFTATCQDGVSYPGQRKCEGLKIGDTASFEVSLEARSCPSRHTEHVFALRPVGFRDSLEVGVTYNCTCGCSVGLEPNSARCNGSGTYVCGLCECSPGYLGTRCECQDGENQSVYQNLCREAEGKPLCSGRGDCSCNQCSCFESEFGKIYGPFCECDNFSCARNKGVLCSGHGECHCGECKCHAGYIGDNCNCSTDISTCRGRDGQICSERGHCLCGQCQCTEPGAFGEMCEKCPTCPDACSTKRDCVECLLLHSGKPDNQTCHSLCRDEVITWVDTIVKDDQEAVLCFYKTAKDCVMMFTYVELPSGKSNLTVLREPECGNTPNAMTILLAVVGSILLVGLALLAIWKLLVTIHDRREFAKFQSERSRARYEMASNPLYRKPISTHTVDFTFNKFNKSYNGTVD
# UniProt P08758, residues 2-320: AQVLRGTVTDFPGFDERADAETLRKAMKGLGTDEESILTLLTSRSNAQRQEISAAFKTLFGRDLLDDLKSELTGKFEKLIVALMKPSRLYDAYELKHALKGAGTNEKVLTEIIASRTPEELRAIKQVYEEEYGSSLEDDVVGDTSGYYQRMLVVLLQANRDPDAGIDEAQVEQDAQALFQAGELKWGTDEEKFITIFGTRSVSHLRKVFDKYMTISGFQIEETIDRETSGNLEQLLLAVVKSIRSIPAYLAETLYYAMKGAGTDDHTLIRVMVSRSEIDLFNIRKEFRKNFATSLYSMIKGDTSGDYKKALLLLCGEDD
# These are yes or no findings as the source states them, for the method shown. Some binding calls cover weakened binding; strength is not graded here.
# Key:
# [1] = target: GST-β5cyto (GST fusion protein of the integrin β5 cytoplasmic domain) (UniProt P18084); assay: ELISA, plates coated with GST-β5, Annexin V detected with anti-Annexin V antibodies
# Annexin V = Annexin V (UniProt P08758); assay: ELISA, plates coated with Annexin V, GST fusion proteins detected with anti-GST fusion protein antibodies (not shown)
Substance,binding [1],binding (Annexin V)
Annexin V (from UniProt P08758 2-320),binds,–
GST-β5cyto (GST fusion protein of the integrin β5 cytoplasmic domain) (from UniProt P18084 749-799),–,binds
